Assay results: patent publication US20130011497A1 (published 2013)

By UniProt entry, the sequences of proteins in these tests, tags left out.
UniProt O14744, whole entry: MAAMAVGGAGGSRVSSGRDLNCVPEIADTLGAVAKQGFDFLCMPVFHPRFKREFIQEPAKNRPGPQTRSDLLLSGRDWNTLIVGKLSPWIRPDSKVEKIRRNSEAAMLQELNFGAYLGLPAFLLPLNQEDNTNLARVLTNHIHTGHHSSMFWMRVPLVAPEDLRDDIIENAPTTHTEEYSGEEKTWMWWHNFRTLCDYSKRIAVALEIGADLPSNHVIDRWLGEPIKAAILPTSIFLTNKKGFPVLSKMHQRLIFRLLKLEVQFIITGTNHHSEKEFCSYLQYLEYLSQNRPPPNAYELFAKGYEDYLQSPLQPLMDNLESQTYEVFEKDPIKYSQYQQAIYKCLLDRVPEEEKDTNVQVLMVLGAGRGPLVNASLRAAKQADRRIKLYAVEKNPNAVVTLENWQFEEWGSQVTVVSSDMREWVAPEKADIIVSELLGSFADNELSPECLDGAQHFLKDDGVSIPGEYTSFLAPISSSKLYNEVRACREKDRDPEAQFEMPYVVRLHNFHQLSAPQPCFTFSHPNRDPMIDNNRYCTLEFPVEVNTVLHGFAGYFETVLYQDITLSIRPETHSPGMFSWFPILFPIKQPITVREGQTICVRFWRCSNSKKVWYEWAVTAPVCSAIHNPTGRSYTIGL

Target: T1, PRMT5 (protein arginine N-methyltransferase 5), endogenous in U2OS cells (UniProt O14744 1-637)
T1 construct: Endogenous protein in U2OS cell lysate, detected by immunoblot with the anti-PRMT5 antibody (Upstate)
Assay: co-immunoprecipitation (HA11) from transfected U2OS cells, immunoblot

B1: ectopic E2F-1 KKK mutant (HA-E2F1 R109K/R111K/R113K) expressed in cells (other)
chain: MALAGAPAGGPCAPALEALLGAGALRLLDSSQIVIISAAQDASAPPAPTGPAAPAAGPCDPDLLLFATPQAPRPTPSAPRPALGRPPVKRRLDLETDHQYLAESSGPAKGKGKHPGKGVKSPGEKSRYETSLNLTTKRFLELLSHSADGVVDLNWAAEVLKVQKRRIYDITNVLEGIQLIAKKSKNHIQWLGSHTTVGVGGRLEGLTQDLRQLQESEQQLDHLMNICTTQLRLLSEDTDSQRLAYVTCQDLRSIADPAEQMVMVIKAPPETQLQAVDSSENFQISLKSKQGPIDVFLCPEETVGGISPGKTPSQEVTSEEENRATDSATIVSPPPSSPPSSLTTDPSQSLLSLEQEPLLSRMGSLRAPVDEDRLSPLVAADSLLEHVREDFSGLLPEEFISLSPPHEALDYHFGLEEGEGIRDLFDCDFGDLTPLDF
notes: Expressed from a transfected vector in U2OS or HeLa cells and immunoprecipitated with HA11; not shown: HA tag (recognised by the HA11 antibody)
  binding result: no binding
